Data taken from PubChem BioAssay AID540256 (National Center for Advancing Translational Sciences (NCATS), 2011).
Among all 300,000 compounds or so, about 3,700 (1.2%) were called active. The shares of active, inactive and inconclusive entries below differ from those in the screen. Calls follow the shape of the full dose curve; tested in HEK293 cells. Potencies of inconclusive entries are doubtful fits and often do not repeat.

Assay: qHTS for Inhibitors of binding or entry into cells for Lassa Virus; also: nearly all actives have a fitted effect of over 50% in size
Conditions: Lassa virus pseudotype entry inhibition, cell reporter; series mostly up to 37.9 µM
Potency is read from the fitted curve at half-maximal effect.

Row | Compound | Potency
1 | CCN1C(=O)/C(=C/N2CCc3ccccc32)SC1=S | inconclusive: 3.55 µM [activator, single point]
2 | CCOc1ccc(NC(=S)NCCCN2CCN(c3ccc(OC)cc3)CC2)cc1 | inconclusive: 10 µM [inhibitor, partial curve, poor fit]
3 | COC(=O)COc1ccc2c(=O)c(-c3ccccc3OC)coc2c1 | inconclusive: 12.6 µM [activator, single point]
4 | O=C(Nc1ccc(/C=C/c2nc3ccccc3o2)cc1)c1c(F)cccc1F | inconclusive: 15.8 µM [inhibitor, partial curve, poor fit]
5 | CCC(C)N(C(=O)Cn1nnc2ccccc21)C(C(=O)Nc1ccc(F)cc1)c1cccc(OC)c1 (stereo not given) | inconclusive: 9.2 µM [inhibitor, partial curve]
6 | COc1ccc(C2c3ccc(O)cc3Oc3ncn4nc(-c5cccnc5)nc4c32)cc1OC (stereo not given) | inconclusive: 10 µM [inhibitor, partial curve, poor fit]
7 | COc1cccc(NC(=O)CSC2=Nc3ccccc3C3=NC(CC(=O)NCc4cccs4)C(=O)N23)c1 (stereo not given) | inactive
8 | O=C(/C=C/c1ccco1)Nc1ccccc1C(=O)O | inconclusive: 10 µM [inhibitor, partial curve, poor fit]
9 | O=C(CN1CCN(c2ccccn2)CC1)Nc1ccc(Oc2ccccc2)cc1 | inconclusive: 14.1 µM [inhibitor, partial curve, poor fit]
10 | COc1ccc(C=O)cc1COc1ccc(F)cc1F | inactive
11 | O=C(CCc1nc2ccccc2[nH]c1=O)OCC(=O)c1ccc(Cl)cc1 | inactive
12 | O=C(CSc1nc2ccccc2[nH]1)Nc1ccc2[nH]c(=O)[nH]c2c1 | inactive
13 | CCOc1ccc2oc(C(=O)OC(C(=O)NC(N)=O)C(C)C)c(C)c2c1 (stereo not given) | inconclusive: 1 µM [inhibitor, full curve, poor fit]
14 | Cc1cc(C)cc(CN2CCC(Oc3ccc(C(=O)N4CCCC4)cc3)CC2)c1 | inconclusive: 15.8 µM [inhibitor, partial curve, poor fit]
15 | CCc1ccc(C(=O)c2cn(CC(=O)Nc3ccc4c(c3)OCCO4)c3ccc(CC)cc3c2=O)cc1 | inactive
16 | Cc1ccc(C(=O)N/N=C\c2cccs2)cn1 | inactive
17 | COc1cc(-c2nnc3n2N=C(c2ccccc2)CS3)cc(OC)c1OC | inconclusive: 2.31 µM [inhibitor, partial curve]
18 | CN1C2=CC=CC=CC2=[N+](C)C12C([N+](=O)[O-])=CC(=[N+]([O-])[O-])C=C2[N+](=O)[O-] (stereo not given) | inconclusive: 1.41 µM [inhibitor, partial curve, poor fit]
19 | CCCN(CCC)C(=O)c1c[nH]c2ccc(S(=O)(=O)N(C)c3ccc(OCC)cc3)cc2c1=O | inactive
20 | COc1ccc(-c2nc3ncccc3n2O)cc1 | inconclusive: 7.08 µM [activator, partial curve, poor fit]
21 | Cc1c(CCC(=O)NCc2ccc(F)cc2)c(=O)oc2cc(O)ccc12 | inactive
22 | O=C1N/C(=C/c2cccn2-c2ccc(F)cc2)C(=O)N1Cc1ccccc1F | inconclusive: 0.651 µM [inhibitor, partial curve, poor fit]
23 | CCCCCCCCCCCCCCCC[n+]1cccc2ccccc21 | active: 7.94 µM
24 | CCOc1ccccc1NC(=O)C1=C(C)Nc2ncnn2C1c1sccc1C (stereo not given) | inconclusive: 7.08 µM [inhibitor, full curve]
25 | CC(C)N(Cc1nc(-c2ccc(Cl)cc2)no1)C(=O)CN(C)S(=O)(=O)c1ccc(Cl)cc1 | inconclusive: 7.3 µM [inhibitor, partial curve, poor fit]

Row | Compound | Potency
26 | CCOC(=O)N1CCN(CC(=O)NC(=O)Nc2ccc3c(c2)OCCO3)CC1 | inactive
27 | Cc1cc(CCCCCCCCc2cc(C)cc(=O)o2)oc(=O)c1 | inactive
28 | O=c1c(N2CCc3ccccc3C2)csc2ccc(F)cc12 | inactive
29 | CCOC(=O)c1ccc(CN(Cc2ccc(OC)cc2)S(=O)(=O)c2cccc(C(F)(F)F)c2)cc1 | inactive
30 | COc1ccc(Cl)cc1NC(=S)NCc1cccs1 | inactive
31 | CCCCn1c(NCc2ccccn2)nc2ccccc21 | inconclusive: 3.26 µM [activator, single point]
32 | CC(NC(=O)COC(=O)C1CCN(S(=O)(=O)c2ccccc2C(F)(F)F)CC1)c1ccccc1 (stereo not given) | inconclusive: 0.398 µM [activator, partial curve, poor fit]
33 | CN1CCCN(Cc2ccc(Cl)cc2Cl)CC1 | inconclusive: 2.91 µM [inhibitor, partial curve, poor fit]
34 | CCOC(=O)Cn1c(=O)n(CC2CCCO2)c2nc(-c3ccccc3Cl)nc(C(N)=O)c21 (stereo not given) | inactive
35 | COc1ccc(C(=O)NC(=S)Nc2ccc3[nH]c(=O)[nH]c3c2)cc1 | inactive
36 | Cc1cc(NC(=O)CSc2ccc(-c3cccc([N+](=O)[O-])c3)nn2)no1 | inactive
37 | COc1cc(OC)c(OC)cc1CNc1cc(C)ccc1OC | inconclusive: 29.1 µM [inhibitor, single point]
38 | CC(C)c1ccc(N(C(=O)C(F)(F)F)C(C(=O)NC2CCCCC2)c2ccncc2)cc1 (stereo not given) | inconclusive: 0.517 µM [inhibitor, partial curve, poor fit]
39 | CCCCOC(=O)Nc1ccc(S(=O)(=O)Nn2cnnc2)cc1 | inactive
40 | c1ccc(Oc2ccccn2)cc1 | inactive
41 | CCCOc1ccc(C(=O)NNC(=S)NC(C)=O)cc1 | inconclusive: 8.2 µM [inhibitor, partial curve, poor fit]
42 | O=c1[nH]c(=S)[nH]c2nc(-c3cccs3)cc(C(F)(F)F)c12 | inconclusive: 0.355 µM [inhibitor, full curve, poor fit]
43 | O=C1CN(C(=O)CSc2nc(-c3ccc(Cl)cc3)cs2)c2ccccc2N1 | inactive
44 | CC(C)COC(=O)n1ccc(C(=O)N2CCCCC2)n1 | inconclusive: 20.6 µM [activator, single point]
45 | Nc1nc(NCC(=O)O)nc(N2CCCCCC2)c1[N+](=O)[O-] | inconclusive: 35.5 µM [activator, single point]
46 | COc1cccc(C(=O)Nc2cccc(OC(C)=O)c2)c1 | inactive
47 | CCOC(=O)c1c(-c2cccs2)csc1NC(=O)C(C)(C)C | inactive
48 | Brc1ccc(N=NNc2ccccc2)cc1 | inactive
49 | COc1ccc(NS(=O)(=O)c2ccc3oc(SCc4ccc(F)cc4)nc3c2)cc1 | inconclusive: 25.1 µM [inhibitor, single point]
50 | CCn1c(/C=N/n2cnnc2)nc2ccccc21 | inactive

Row | Compound | Potency
51 | CCn1c2ccccc2c2cc(CN3CCN(Cc4ccc(OC)c(OC)c4)CC3)ccc21 | inconclusive: 8.91 µM [inhibitor, partial curve, poor fit]
52 | COc1ccc(Cn2c(=O)[nH]c3cc(C(=O)N4CCN(Cc5ccccc5)CC4)ccc3c2=O)cc1 | inactive
53 | O=c1c(-c2ccc(F)cc2)coc2cc(O)ccc12 | inconclusive: 29.1 µM [inhibitor, single point]
54 | Clc1nc(NCc2ccco2)nc(N2CCCCC2)n1 | inactive
55 | COc1ccc(N2CCN(C(=O)c3cc(-c4ccc(C)c(F)c4)on3)CC2)cc1 | inactive
56 | CCCCN(C)C(=O)c1sc2ncn(CC)c(=O)c2c1C | inactive
57 | COc1ccc(C2Oc3ccccc3N2C(C)=O)cc1 (stereo not given) | inconclusive: 0.92 µM [activator, full curve, poor fit]
58 | COc1ccc(NC(=O)c2c(N)c(C(=O)c3ccc(OC)cc3)n3ccccc23)cc1 | inactive
59 | Cc1ccc(S(=O)(=O)CNC(=O)c2ccccc2)cc1 | inactive
60 | COCCNC(=S)N/N=C(\C)c1ccc(Cl)c(Cl)c1Cl | inconclusive: 22.4 µM [inhibitor, single point]
61 | C/C(=N\NC(=S)NCCc1ccccc1)c1ccc(C)cc1 | inconclusive: 16.4 µM [inhibitor, single point]
62 | CCc1noc(C)c1C(=O)Nc1nc(-c2ccc(NC(C)=O)cc2)cs1 | inconclusive: 2.82 µM [inhibitor, partial curve, poor fit]
63 | CC1N(C)c2cc(NC(=O)c3cccs3)c(P(=O)(Nc3ccc([N+](=O)[O-])cc3)N3CCOCC3)cc2C1(C)C (stereo not given) | inconclusive: 35.5 µM [inhibitor, single point]
64 | CCN(CC(=O)Nc1c(F)cccc1F)C(=O)CCNS(=O)(=O)c1ccccc1C(F)(F)F | inactive
65 | CC(=O)c1cccc(NC(=S)NC(=O)C(C)C)c1 | inactive
66 | COc1ccc(-n2c(=O)c3ccccc3c3ccccc3c2=O)c(OC)c1 | inactive
67 | CCn1c2c(c(=O)n3ncc(C(=O)Nc4ccc(C(=O)OC)cc4)c13)CN(Cc1ccc(OC)cc1)CC2 | inactive
68 | FC(F)(F)c1ccc(N2CCN(Cc3ccc4c(c3)OCO4)CC2)nc1 | inactive
69 | CCOc1ccc(/C=N/N2CCN(Cc3ccccc3)CC2)cc1 | inactive
70 | Cc1c(C(=O)NCc2ccccc2)oc2ccc(S(=O)(=O)N3CCC(C)CC3)cc12 | inconclusive: 2.82 µM [activator, single point]
71 | O=C(NCc1ccco1)c1ccc2c(=O)n(Cc3ccco3)c(SCC(=O)N3CCCC3)nc2c1 | inactive
72 | Cc1onc(-c2ccccc2)c1CNS(=O)(=O)c1cccc(Br)c1 | inactive
73 | CCc1cccc(CC)c1NC(=S)NCc1ccc2[nH]c(C)cc2c1 | active: 18.4 µM
74 | CCNC(=O)N(CCOC)CC1CCCN(C2Cc3ccccc3C2)C1 (stereo not given) | inconclusive: 35.5 µM [activator, partial curve, poor fit]
75 | Cc1ccc2[nH]c(=O)c(CN(Cc3cccs3)C(=S)NCc3ccco3)cc2c1 | inconclusive: 10 µM [inhibitor, partial curve]

Among those listed so far, these contain a COOH group.
Row | Compound | Potency
8 | O=C(/C=C/c1ccco1)Nc1ccccc1C(=O)O | inconclusive: 10 µM [inhibitor, partial curve, poor fit]
45 | Nc1nc(NCC(=O)O)nc(N2CCCCCC2)c1[N+](=O)[O-] | inconclusive: 35.5 µM [activator, single point]
